From patent US7838645B2, “Function of autophagy genes in cell death” (University of Maryland College Park, priority 2004, dated 2010)
For at least one compound, name, drawing or mass did not settle the structure.

Assays:
[1] = test system: RAW264.7 cells; assay: Cell loss by flow cytometry in RAW264.7 cells; format: cell-based, mouse; settings: 0.1 ug/ml WM or 10 mM 3-MA for 1 hr, then 100 uM zVAD for 48 hrs, FIG. 6
Procedure: (§1) Cell viability was determined after treatments by staining with propidium iodide (2 μg/mL) and flow cytometric analysis on a FACScan. Percent cell death was quantitated as previously described (26).
(§2) The RAW264.7 cells were treated with 0.1 ug/ml Wortmannin (WM) or 10 mM 3-methyladenine (3-MA) for 1 hr and the with 100 uM zVAD for 48 hrs, after which cell loss was quantitated by flow cytometry. […] Mouse peritoneal macrophages cells were treated with 0.1 ug/ml Wortmannin (WM) or 10 mM 3-methyladenine (3-MA) for 1 hr and with 100 uM zVAD for 24 hrs, after which cell loss were quantitated by flow cytometry.

[2] = test system: mouse peritoneal macrophages; assay: Cell loss by flow cytometry in mouse peritoneal macrophages; format: cell-based; settings: 0.1 ug/ml WM or 10 mM 3-MA for 1 hr, then 100 uM zVAD for 24 hrs, FIG. 7
Procedure: as §1, §2

## COC[C@H]1OC(=O)c2coc3c2[C@@]1(C)C1=C(C3=O)[C@@H]2CCC(=O)[C@@]2(C)C[C@H]1OC(C)=O [Wortmannin]
[1]
  Effect on zVAD-induced cell death: arrested zVAD-induced cell death
[2]
  Effect on zVAD-induced cell death: arrested zVAD-induced cell death
